Source: the supplement of paper PMC6078165
Values are relative to the signal before dosing, not to a vehicle control; the signal also falls without drug.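 Fibroblast labels denote human fibroblasts, mainly primary ones from uterus (C12385, HUF), lung (H6013), bone (Hs27A), adrenal (HADF) and skin (WS1), plus mammary HMF and breast cancer-associated Hs343T. Cancer cells are basal-like or mesenchymal-like triple-negative breast cancer lines. A hit is a response shift exceeding 3x replicate standard deviation. The tissue of the other fibroblasts is not given here.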

Tested on: BT20
Assay: relative JC-1 red fluorescence (viability) vs pre-drug, coculture with fibroblast (fraction); higher = more viable cancer cells
Procedure: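 JC-1 labelled TNBC cells cocultured 1:1 (1,500 cells each) with CellTrace Violet stained primary or stromal fibroblasts in 384-well plates in FluoroBrite medium, treated with one of 42 anticancer drugs at 0.1, 1, 10 or 100 uM. JC-1 red fluorescence (mitochondrial integrity in cancer cells only) was read by plate reader every 8 h for 72 h. Values are normalised to each well's pre-drug value. The stock of one drug was tenfold lower, so its dose labels may be too high.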

CC[C@]1(O)C[C@@H]2CN(CCc3c([nH]c4ccccc34)[C@@](C(=O)OC)(c3cc4c(cc3OC)N(C)[C@H]3[C@@](O)(C(=O)OC)[C@H](OC(C)=O)[C@]5(CC)C=CCN6CC[C@]43[C@@H]65)C2)C1 [Vinblastine]
relative JC-1 red fluorescence
Settings	8 h	16 h	24 h	32 h	40 h	48 h	56 h	64 h	72 h
0.1 µM, coculture fibroblast: C12385	0.882	0.8212	0.799	0.739	0.67	0.625	0.597	0.593	0.591
0.1 µM, coculture fibroblast: H6013	0.9206	0.896	0.867	0.831	0.797	0.786	0.781	0.771	0.77
0.1 µM, coculture fibroblast: H6019	0.8641	0.83759	0.871	0.841	0.813	0.813	0.796	0.801	0.795
0.1 µM, coculture fibroblast: H6076	0.957	0.912	0.8575	0.849	0.833	0.829	0.846	0.869	0.875
0.1 µM, coculture fibroblast: H6231	0.71	0.935	0.837	0.754	0.679	0.616	0.558	0.531	0.511
0.1 µM, coculture fibroblast: HADF	0.946	0.8728	0.812	0.7648	0.723	0.686	0.668	0.651	0.633
0.1 µM, coculture fibroblast: HCFa	0.9021	0.909	0.919	0.875	0.856	0.829	0.815	0.79	0.754
0.1 µM, coculture fibroblast: HCPF	0.851	0.915	0.8354	0.768	0.733	0.685	0.643	0.644	0.609
0.1 µM, coculture fibroblast: HHSteC	0.8892	0.883	0.89	0.81	0.777	0.744	0.726	0.712	0.688
0.1 µM, coculture fibroblast: HMF	0.924	0.856	0.771	0.732	0.701	0.663	0.649	0.626	0.621
0.1 µM, coculture fibroblast: HPFa	0.9512	0.842	0.8419	0.774	0.75	0.719	0.705	0.69	0.658
0.1 µM, coculture fibroblast: HUF	0.8937	0.778	0.7357	0.636	0.586	0.524	0.489	0.469	0.455
0.1 µM, coculture fibroblast: Hs5	0.858	0.924	0.8558	0.808	0.762	0.722	0.691	0.658	0.643
0.1 µM, coculture fibroblast: Hs27A	0.922	0.86	0.902	0.872	0.837	0.825	0.819	0.815	0.793
0.1 µM, coculture fibroblast: Hs343T	0.85	0.879	0.778	0.7145	0.651	0.595	0.557	0.541	0.518
0.1 µM, coculture fibroblast: WS1	0.8437	0.776	0.737	0.665	0.603	0.576	0.548	0.536	0.531
1 µM, coculture fibroblast: C12385	0.875	0.8165	0.7832	0.724	0.67	0.635	0.599	0.581	0.57
1 µM, coculture fibroblast: H6013	0.831	0.833	0.848	0.853	0.852	0.807	0.835	0.76	0.7792
1 µM, coculture fibroblast: H6019	0.831	0.8	0.798	0.7576	0.72	0.7177	0.703	0.698	0.695
1 µM, coculture fibroblast: H6076	0.94	0.915	0.871	0.848	0.8291	0.811	0.799	0.806	0.802
1 µM, coculture fibroblast: H6231	0.823	0.948	0.835	0.767	0.696	0.643	0.585	0.562	0.53
1 µM, coculture fibroblast: HADF	0.953	0.884	0.887	0.814	0.778	0.737	0.725	0.723	0.695
1 µM, coculture fibroblast: HCFa	0.882	0.857	0.8304	0.7473	0.69	0.6402	0.6174	0.591	0.558
1 µM, coculture fibroblast: HCPF	0.918	0.9261	0.858	0.805	0.761	0.721	0.678	0.663	0.625
1 µM, coculture fibroblast: HHSteC	0.908	0.958	0.844	0.8856	0.918	0.894	0.911	0.894	0.881
1 µM, coculture fibroblast: HMF	0.99	0.8844	0.78038	0.713	0.674	0.6244	0.565	0.54	0.517
1 µM, coculture fibroblast: HPFa	0.934	0.878	0.891	0.795	0.781	0.735	0.726	0.711	0.681
1 µM, coculture fibroblast: HUF	0.935	0.861	0.837	0.74	0.694	0.647	0.617	0.598	0.585
1 µM, coculture fibroblast: Hs5	0.937	0.935	0.867	0.807	0.761	0.719	0.69	0.665	0.636
1 µM, coculture fibroblast: Hs27A	0.753	0.814	0.764	0.913	0.892	0.953	0.95	0.927	0.877
1 µM, coculture fibroblast: Hs343T	0.815	0.911	0.801	0.725	0.662	0.61	0.544	0.509	0.473
1 µM, coculture fibroblast: WS1	0.8422	0.792	0.793	0.74	0.695	0.682	0.671	0.661	0.663
10 µM, coculture fibroblast: C12385	0.8386	0.811	0.783	0.744	0.674	0.64	0.624	0.5955	0.568
10 µM, coculture fibroblast: H6013	0.8962	0.865	0.832	0.784	0.749	0.728	0.7083	0.6824	0.668
10 µM, coculture fibroblast: H6019	0.8276	0.772	0.7561	0.709	0.6475	0.632	0.605	0.59	0.585
10 µM, coculture fibroblast: H6076	0.978	0.902	0.823	0.791	0.7534	0.703	0.673	0.649	0.618
10 µM, coculture fibroblast: H6231	0.83959	0.937	0.833	0.752	0.71728	0.665	0.617	0.588	0.548
10 µM, coculture fibroblast: HADF	0.964	0.932	0.894	0.87	0.863	0.829	0.83	0.81	0.786
10 µM, coculture fibroblast: HCFa	0.9218	0.897	0.864	0.802	0.757	0.722	0.691	0.674	0.648
10 µM, coculture fibroblast: HCPF	0.913	0.928	0.829	0.768	0.719	0.672	0.6322	0.6048	0.556
10 µM, coculture fibroblast: HHSteC	0.9206	0.912	0.886	0.794	0.753	0.71	0.663	0.63	0.593
10 µM, coculture fibroblast: HMF	0.836	0.96	0.871	0.792	0.7218	0.659	0.605	0.567	0.527
10 µM, coculture fibroblast: HPFa	0.89816	0.838	0.828	0.7299	0.705	0.672	0.636	0.613	0.583
10 µM, coculture fibroblast: HUF	0.8844	0.8148	0.7878	0.698	0.646	0.597	0.567	0.539	0.518
10 µM, coculture fibroblast: Hs5	0.793	0.947	0.873	0.818	0.76	0.713	0.662	0.626	0.606
10 µM, coculture fibroblast: Hs27A	0.749	0.887	0.8714	0.877	0.842	0.846	0.84	0.821	0.78
10 µM, coculture fibroblast: Hs343T	0.904	0.86	0.863	0.794	0.7238	0.654	0.585	0.557	0.521
10 µM, coculture fibroblast: WS1	0.819	0.773	0.7352	0.6545	0.573	0.529	0.487	0.457	0.431
100 µM, coculture fibroblast: C12385	0.729	0.579	0.472	0.379	0.301	0.275	0.241	0.24	0.207
100 µM, coculture fibroblast: H6013	0.82013	0.593	0.469	0.312	0.231	0.191	0.175	0.145	0.118
100 µM, coculture fibroblast: H6019	0.646	0.531	0.445	0.356	0.296	0.272	0.243	0.219	0.197
100 µM, coculture fibroblast: H6076	0.914	0.639	0.503	0.439	0.374	0.315	0.267	0.233	0.184
100 µM, coculture fibroblast: H6231	0.947	0.628	0.39	0.281	0.184	0.134	0.0973	0.0702	0.0469
100 µM, coculture fibroblast: HADF	0.924	0.793	0.646	0.439	0.354	0.293	0.268	0.243	0.203
100 µM, coculture fibroblast: HCFa	0.814	0.785	0.634	0.428	0.32	0.278	0.245	0.217	0.175
100 µM, coculture fibroblast: HCPF	0.918	0.603	0.447	0.374	0.336	0.289	0.236	0.208	0.158
100 µM, coculture fibroblast: HHSteC	0.818	0.5508	0.465	0.306	0.251	0.21	0.194	0.17	0.138
100 µM, coculture fibroblast: HMF	0.937	0.593	0.405	0.34	0.284	0.233	0.203	0.169	0.129
100 µM, coculture fibroblast: HPFa	0.771	0.678	0.551	0.363	0.287	0.227	0.204	0.174	0.137
100 µM, coculture fibroblast: HUF	0.754	0.671	0.585	0.395	0.292	0.238	0.207	0.175	0.155
100 µM, coculture fibroblast: Hs5	0.9255	0.601	0.495	0.378	0.302	0.25	0.204	0.167	0.13
100 µM, coculture fibroblast: Hs27A	0.865	0.82	0.872	0.619	0.511	0.474	0.457	0.422	0.372
100 µM, coculture fibroblast: Hs343T	0.838	0.49	0.301	0.236	0.19	0.143	0.0981	0.0741	0.044
100 µM, coculture fibroblast: WS1	0.598	0.395	0.326	0.249	0.188	0.16	0.137	0.117	0.106
